Screening data, single-dose tests

Amino acid sequences for entries named in this document (tags omitted).
UniProt P9WPC5, whole entry: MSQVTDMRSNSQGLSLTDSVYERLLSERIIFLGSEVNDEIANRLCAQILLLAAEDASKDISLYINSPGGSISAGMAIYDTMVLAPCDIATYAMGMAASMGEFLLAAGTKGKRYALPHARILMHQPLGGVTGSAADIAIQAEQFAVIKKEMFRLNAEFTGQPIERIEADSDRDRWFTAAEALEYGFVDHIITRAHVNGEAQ
UniProt P9WPC3, whole entry partner: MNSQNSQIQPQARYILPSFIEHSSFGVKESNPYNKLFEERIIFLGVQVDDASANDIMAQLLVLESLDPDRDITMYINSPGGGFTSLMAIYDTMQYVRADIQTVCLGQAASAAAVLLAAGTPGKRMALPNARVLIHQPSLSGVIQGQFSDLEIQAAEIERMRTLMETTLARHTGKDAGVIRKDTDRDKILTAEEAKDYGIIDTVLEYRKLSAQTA

Measurements from “University of Dundee, Small-Polar-MMV Screening Library” (2021), ChEMBL document CHEMBL3988442.

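ClpP1P2, Mycobacterium tuberculosis (UniProt P9WPC5 and UniProt P9WPC3). Protease assay of ClpP1P2, read by the AMC dye that it sets free. Tested at 50 µM. Higher reads as stronger inhibition, judged from the few compounds that gave an IC50. Most other retested compounds had strongly negative values. Size under these conditions: about 69,000 compounds, about 10 of them at 50% or above in at least one test.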

Results are given as percent effect.
How 0% and 100% were set is not recorded. Most values in the screen are low, and negative values occur.
Compounds were drawn at random from those tested, without regard to their results.

Cc1noc(C(C)Nc2ccc(N3CCOCC3)cc2C)n1 (configuration not stated) gave 1.345%. CCCS(=O)(=O)N1CCC(c2ccc(OC)cc2)CC1 read -15.9%. For O=C1CSC(C(F)(F)F)c2c(O)nn(C3CCCC3)c2N1 (configuration not stated) the result was -7.644%. With Cc1cc(C(=O)N(C)Cc2cccs2)nc(N2CCOCC2)n1 the screen gave -12.87%. O=C(Nc1nncs1)c1ccc(O)nc1 gave 10.55%.

Result for N#Cc1cnc(NCc2cccc(C(=O)N3CCCC3)c2)c(Cl)c1 was -10.94%. COc1cccc2c1OCC(CNC(=O)CCn1cnnn1)C2 (configuration not stated) read -6.867%. CC(C)n1cc(CN2CCCN(C(=O)C3(C)CCOCC3)CC2)cn1 gave -3.377%. With Cn1cc(CN2CCC3(CC2)CC(Nc2nccs2)CO3)cn1 (configuration not stated) the screen gave 18.48%. COc1cc(C(=O)N2CCC(c3n[nH]c(C4CC4)n3)CC2)ccc1C gave -0.05253%.

For Fc1cccc2c1CCC2NCc1cnc(N2CCOCC2)nc1 (configuration not stated) the result was -3.815%. Result for CCOCC1CN(S(=O)(=O)Cc2ccccc2)Cc2nccn2C1 (configuration not stated) was -4.399%. CCn1cc(CN2CCCN(C(=O)c3cccc(C#N)c3)CC2)cn1 read -15.55%. With Clc1ccccc1C1(c2ccnc(-c3ccncc3)n2)CCNCC1 the screen gave -5.565%. For COCCN(Cc1sccc1C)Cc1nccn1CCOC the result was -6.55%.

For Cc1cccc(C(=O)NCC(O)c2ccc(F)cc2F)c1 (configuration not stated) the result was 4.016%. Cc1ccc(OCC2CCCN(C(=O)CCn3ccccc3=O)C2)cc1 (configuration not stated) read 12.57%. Cc1ccsc1-c1nccn1CCN1CCCCC1CO (configuration not stated) read -8.856%. For CC(=O)c1cccc(-c2c[nH]c(C)n2)c1 the result was -22.9%. N#CCCNC(=O)CSc1cc(F)ccc1F read 3.082%.

Result for COc1cccc(OCCNCc2ccccc2)c1 was -1.56%. COc1cc(CN(C)C(C)c2ccccn2)cc2c1OCO2 (configuration not stated) read -9.67%. For Cn1nc(COc2cccnc2)c2c1CCN(CC1CC1)C2 the result was 9.206%. Result for C[C@H]1C[C@@H]2CCN(Cc3ccccn3)C[C@H]2O1 was 3.889%. Cc1cc(S(=O)(=O)NCC(O)c2sccc2C)ccc1F (configuration not stated) read 6.02%.

CCN(C)S(=O)(=O)N(CC)Cc1cccc(-c2ccncc2)c1 read 1.685%. Result for Cc1nc2n(n1)CC(NCc1ccnc(-c3ccccc3)n1)CC2 (configuration not stated) was -10.57%. CCCN1CCCC2(CCN(Cc3cncn3C3CCCC3)C2)C1=O (configuration not stated) read -36.65%. Result for Cc1ccc(O)c(CN2CCc3nc(-c4cccnc4)nc(O)c3C2)c1 was -6.351%. With O=C(c1ccncc1)N1CCCC(c2cc(C(F)F)n3ncnc3n2)C1 (configuration not stated) the screen gave -5.282%.

For Fc1cccc2[nH]c(CN3CCn4c(nnc4C4CC4)C3)nc12 the result was -7.761%. For c1csc(-c2nc(CN3CCCCC3Cn3cccn3)co2)c1 (configuration not stated) the result was -7.036%. For COc1cccc2c1OCC(C(=O)N1CCC(NS(C)(=O)=O)CC1)C2 (configuration not stated) the result was 1.304%. Cn1cccc1CN1CCC2(CCCN(C(=O)c3cccnc3)C2)CC1 gave -13.82%. Result for CCOC(=O)C(C)NC(=O)CCSc1ccc(F)cc1 (configuration not stated) was -9.787%.

With NC(=O)c1c(-c2ccc(Cl)cc2)csc1NC(=O)CCC(=O)O the screen gave -19.13%. O=C(NCc1cccs1)[C@H]1CC[C@@H]2[C@@H](CCN2c2ncccn2)O1 read 11.21%. Result for Cc1cnc(C)c(N2CCC(C(=O)O)(n3ccc(C(C)(C)C)n3)CC2)n1 was -10.05%. CC(C)(C)c1nnc(CN2CCCC2Cn2cncn2)o1 (configuration not stated) gave -7.918%. CCC(C(=O)N1CCN(C(=O)N2CCOCC2)CC1)n1cccn1 (configuration not stated) read -15.71%.

C1CN(CC2CCOCC2)Cc2c(COCC3CC3)nnn2C1 gave 2.307%. Result for CC(C)(C)CN[C@@H]1CO[C@H](CNC(=O)Nc2ccccc2)[C@H]1O was -6.154%. COc1ccc(Br)cc1CCC(=O)N1CCCC1 read 1.348%. COC(=O)c1ccc(OCC(=O)N(C)Cc2ccsc2)c(OC)c1 read -4.503%. Result for COc1cn(CC(=O)N2CCN(c3ccc(Cl)cc3)CC2)c(C)cc1=O was -10.21%.

For N#Cc1cccc(C(=O)N2CC(c3nc(-c4ccc[nH]c4=O)no3)C2)c1 the result was -11.6%. For Cc1noc(C2CCCN(CC(=O)N3CCc4ccccc4C3)C2)n1 (configuration not stated) the result was 5.885%. Result for COCCN1C[C@H]2CCN(c3ncccn3)CC[C@H]2S1(=O)=O was -4.888%. With Cc1cc(C(=O)NCC(O)c2c(Cl)cccc2Cl)nn1C (configuration not stated) the screen gave 11.5%. CC(C)n1ccc(-c2cc(C(=O)N3CCN(C)CC3)c3ccccn23)n1 gave -86.93%.

With CC(C)C(=O)N1CCc2onc(C(=O)NCCN(C)C)c2C1 the screen gave -2.123%. For Cc1cc2n(n1)CCN(c1nc(N)nc3c1CCNCC3)C2 the result was -9.67%.

3 of the entries, repeated:

| SMILES | percent effect |
|---|---|
| `N#Cc1cccc(C(=O)N2CC(c3nc(-c4ccc[nH]c4=O)no3)C2)c1` | -11.6% |
| `COc1cccc2c1OCC(CNC(=O)CCn1cnnn1)C2` (configuration not stated) | -6.867% |
| `COc1cccc(OCCNCc2ccccc2)c1` | -1.56% |